Source: patent publication US20110223176A1
These are yes or no findings as the source states them, for the method shown.

How the values were obtained:
[1] = molecular target: cynomolgus monkey BSG2 on the cell surface (cynomolgus monkey); test: receptor binding assay, Eu-labeled antibody on cells expressing cynomolgus BSG2
[2] = molecular target: cynomolgus monkey BSG2 on the cell surface (cynomolgus monkey); test: flow cytometry (FACS) on BAF3 cells expressing cynomolgus BSG2
[3] = molecular target: cynomolgus monkey BSG2 on the cell surface (cynomolgus monkey); test: cell-based ECL (MSD) binding on whole cells expressing cynomolgus BSG2
[4] = molecular target: cynomolgus monkey BSG2 extracellular domain (cynomolgus monkey); test: condition: antigen concentrations ranging from 1.23-900 nM; SPR (Biacore), mAb captured by anti-mouse Fc, BSG2 ECD injected

Measured: binding

B1: mouse anti-human BSG2 monoclonal antibody SZ66-2D2-2A1 (antibody, mouse IgG2a, kappa, V domains shown)
VH: QVQLQQPGAEIVRPGASVKLSCKASGYTFTDYWMNWVKLRPGQGLEWIGIIDPSDSYASYNQKFKGKATLTVDESSSTAYMQLSSLTSEDSAVYYCARKSYYGGNYYYAMDYWGQGTSVTVSS
VL: EIVLTQSPALMAASPGEKVTITCSVSSSINSINLHWYRQKSETSPKPWIYGTSNLASGVPVRFSGSGSGTSYSLTISSMEAEDAATYYCQQWSSYPLTFGAGTKLELKR
no binding: [1] | [2] | [3] | [4]
